Laboratory results published in PubChem BioAssay AID540276 (National Center for Advancing Translational Sciences (NCATS), 2011).
Values joined by “and” are separate entries in the source; they are usually repeats but may differ in a detail not shown here. Equal entries are not always repeated. In all, about 300,000 compounds went through this assay and about 5,400 (1.8%) were called active. The shares of active, inactive and inconclusive entries below differ from those in the screen. The call rests on the fitted dose curve; tested in HEK293 cells. Potencies of inconclusive entries are doubtful fits and often do not repeat.

Assay: qHTS for inhibitors of binding or entry into cells for Marburg Virus
Conditions: Marburg virus pseudotyped entry inhibition, cell reporter; series mostly up to 37.8 µM
Potency means the concentration at half of the fitted maximal effect.

Row | Compound | Potency
1 | COCCNC(=O)C1c2cc(OC)c(OC)cc2C(=O)N(C)C1c1cccnc1 (stereo unspecified) | inactive
2 | O=C(Nc1ccc(S(=O)(=O)N2CCCCC2)cc1)c1ccccc1F | inconclusive: 4.47 µM [inhibitor, full curve, poor fit]
3 | O=C1CCCC(O)=C1N=Nc1cccc(C(=O)O)c1 | inconclusive: 35.5 µM [inhibitor, partial curve, poor fit]
4 | C=CCc1ccc(OCCCCN2CCC(C)CC2)c(OC)c1 | active: 14.6 µM
5 | CCN(CCCNC(=O)c1cc2c(=O)n(C)c3ccccc3c2s1)Cc1ccccc1 | inconclusive: 5.62 µM [inhibitor, single point]
6 | CC1CCc2sc3ncn4nc(C(=O)NCc5ccco5)nc4c3c2C1 (stereo unspecified) | inconclusive: 0.562 µM [activator, full curve, poor fit]
7 | CCOc1ccc(N(CC(=O)NCc2ccco2)C(=O)CCC(=O)Nc2nccs2)cc1 | inconclusive: 20 µM [inhibitor, partial curve, poor fit]
8 | O=C(Nc1nnc(SCC(=O)N2CCCCC2)s1)c1ccccc1F | inconclusive: 4.47 µM [inhibitor, single point]
9 | CCCC(=O)Nc1ccc(NC(=O)c2cccc(OC)c2)nc1 | inactive
10 | O=C(NNc1nc2ccc(Cl)cc2s1)c1cc(-c2cccs2)nc2ccccc12 | inconclusive: 16.4 µM [inhibitor, partial curve, poor fit]
11 | O=C(O)c1cc(N2CCCC2)ccn1 | inconclusive: 5.62 µM [activator, single point]
12 | COc1ccc(N)c2c1C(=O)c1ccccc1C2=O | inactive
13 | COc1ccc(C)cc1S(=O)(=O)N(CC(=O)Nc1cccc([N+](=O)[O-])c1)c1ccc(C)c(C)c1 | inconclusive: 3.55 µM [inhibitor, partial curve, poor fit]
14 | O=C(Nc1nc(-c2ccccc2)cs1)c1ccccc1NS(=O)(=O)c1ccc(F)cc1 | inconclusive: 2.82 µM [inhibitor, full curve]
15 | O=C(N/N=C/c1ccc(O)cc1)c1ccc(NC(=O)c2ccccc2Br)cc1 | inconclusive: 15.8 µM [inhibitor, partial curve, poor fit]
16 | O=C(CNC(=O)c1ccc(F)cc1)N/N=C/c1cc(Br)ccc1OCc1ccccc1 | inconclusive: 16.4 µM [inhibitor, single point]
17 | O=C(CNCc1ccccc1)Nc1ccc(Oc2ccccc2)cc1 | inconclusive: 25.1 µM [inhibitor, single point]
18 | Cc1ccc(NC(=O)CSCC(=O)Nc2cc(C(F)(F)F)ccc2N2CCOCC2)cc1 | inconclusive: 12.6 µM [inhibitor, single point]
19 | Cc1ccc(S(=O)(=O)N(CC(=O)NCCSc2ccccn2)c2ccc(C)c(C)c2)cc1 | inconclusive: 14.1 µM [inhibitor, single point]
20 | OCC1(CCc2ccccc2)CCN(Cc2cnc(N3CCCC3)s2)CC1 | inconclusive: 28.2 µM [inhibitor, single point]
21 | CCOc1nc(C)ccc1-c1noc(C)n1 | inactive
22 | CC(C)C(=O)N1CCN(c2ccccc2NC(=O)c2ccc(Br)o2)CC1 | inconclusive: 5.62 µM [inhibitor, full curve, poor fit]

Row | Compound | Potency
23 | Cc1cc(C)n(-c2ccc(C(=O)OCC(=O)Nc3cc(Cl)ccc3[N+](=O)[O-])cc2)n1 | inconclusive: 1.26 µM [activator, partial curve, poor fit]
24 | COc1ccc(-c2cc(-c3cc(C)ccc3O)[nH]n2)cc1 | inconclusive: 14.1 µM [inhibitor, partial curve, poor fit]
25 | O=C(CSc1nc2ccccc2o1)Nc1ccccc1N1CCCCCC1 | inconclusive: 23.1 µM [inhibitor, single point]
26 | COC(=O)c1ccccc1N1CCS(=O)(=O)CC1 | inconclusive: 1.12 µM [inhibitor, partial curve, poor fit]
27 | COc1ccc(OCCNC(=O)/C=C/c2ccc([N+](=O)[O-])cc2)cc1 | inconclusive: 20.6 µM [activator, single point]
28 | CCCCOC(=O)c1ccc(NC(c2ccc(C)cc2)P(=O)(OC)OC)cc1 (stereo unspecified) | inconclusive: 14.1 µM [inhibitor, partial curve, poor fit]
29 | Cc1cccc2nc(-c3ccco3)c(Nc3ccc4c(c3)OCO4)n12 | inconclusive: 22.4 µM [inhibitor, single point] and inconclusive: 17.8 µM [inhibitor, partial curve, poor fit]
30 | CCOC(=O)N1CCN(S(=O)(=O)c2ccc(C(=O)NNc3nc4c(C)cc(C)cc4s3)cc2)CC1 | inconclusive: 16.4 µM [inhibitor, single point]
31 | CCCCc1nc2ccccc2c(=O)n1-c1ccc(Cl)cc1[N+](=O)[O-] | inconclusive: 8.2 µM [inhibitor, partial curve, poor fit]
32 | c1cnc(NC2C3CC4CC(C3)CC2C4)nc1 (stereo unspecified) | inactive
33 | Cc1nc2ccccc2cc1C(=O)N/N=C/c1cccc([N+](=O)[O-])c1 | inactive
34 | O=c1c2ccccc2ncn1Cc1ccccc1 | inactive
35 | CCN(CC)c1cc(C)c2cc(NC(=O)c3cccc(OC)c3)ccc2n1 | inconclusive: 11.2 µM [inhibitor, single point]
36 | NS(=O)(=O)c1ccc(NC(=S)NC(=O)c2ccco2)cc1 | inactive
37 | Cc1nn(CCC#N)c2c1P(=S)(N1CCCC1)OC(c1ccc(F)cc1)=N2 (stereo unspecified) | inconclusive: 32.6 µM [inhibitor, single point]
38 | Cc1cc(C)c2nc(SC(C)C(=O)NCC(=O)Nc3ccc(F)c(F)c3F)cc(C)c2c1 (stereo unspecified) | inconclusive: 1 µM [activator, full curve]
39 | Cc1cc(N2CCN(c3ccccc3)CC2)n2cc(-c3ccccc3)nc2n1 | inconclusive: 35.5 µM [inhibitor, single point]
40 | CCc1ccc(CN(C)CCc2ccccn2)cc1 | inconclusive: 23.1 µM [activator, single point]
41 | Cc1ccc2ccccc2c1NC(=O)CNC1CCCCC1 | inconclusive: 0.82 µM [inhibitor, full curve]
42 | Cc1ccc(S(=O)(=O)N(CC(O)Cn2c3ccccc3c3ccccc32)c2cccc(C(N)=O)c2)cc1 (stereo unspecified) | inconclusive: 28.2 µM [inhibitor, partial curve, poor fit]
43 | COC(=O)CC=C[C@@H](C)[C@@H](C=NO[C@H](C)c1cn([C@@H]2COC[C@@H]2O)nn1)N[S+](=O)([O-])c1ccc(C)cc1 | inactive
44 | O=C(c1ccccc1)c1cc(-c2ccccn2)c(N2CCOCC2)s1 | inconclusive: 29.1 µM [inhibitor, single point]

Nos. 25 to 40 of the list above:
Row | Compound | Potency
25 | O=C(CSc1nc2ccccc2o1)Nc1ccccc1N1CCCCCC1 | inconclusive: 23.1 µM [inhibitor, single point]
26 | COC(=O)c1ccccc1N1CCS(=O)(=O)CC1 | inconclusive: 1.12 µM [inhibitor, partial curve, poor fit]
27 | COc1ccc(OCCNC(=O)/C=C/c2ccc([N+](=O)[O-])cc2)cc1 | inconclusive: 20.6 µM [activator, single point]
28 | CCCCOC(=O)c1ccc(NC(c2ccc(C)cc2)P(=O)(OC)OC)cc1 (stereo unspecified) | inconclusive: 14.1 µM [inhibitor, partial curve, poor fit]
29 | Cc1cccc2nc(-c3ccco3)c(Nc3ccc4c(c3)OCO4)n12 | inconclusive: 22.4 µM [inhibitor, single point] and inconclusive: 17.8 µM [inhibitor, partial curve, poor fit]
30 | CCOC(=O)N1CCN(S(=O)(=O)c2ccc(C(=O)NNc3nc4c(C)cc(C)cc4s3)cc2)CC1 | inconclusive: 16.4 µM [inhibitor, single point]
31 | CCCCc1nc2ccccc2c(=O)n1-c1ccc(Cl)cc1[N+](=O)[O-] | inconclusive: 8.2 µM [inhibitor, partial curve, poor fit]
32 | c1cnc(NC2C3CC4CC(C3)CC2C4)nc1 (stereo unspecified) | inactive
33 | Cc1nc2ccccc2cc1C(=O)N/N=C/c1cccc([N+](=O)[O-])c1 | inactive
34 | O=c1c2ccccc2ncn1Cc1ccccc1 | inactive
35 | CCN(CC)c1cc(C)c2cc(NC(=O)c3cccc(OC)c3)ccc2n1 | inconclusive: 11.2 µM [inhibitor, single point]
36 | NS(=O)(=O)c1ccc(NC(=S)NC(=O)c2ccco2)cc1 | inactive
37 | Cc1nn(CCC#N)c2c1P(=S)(N1CCCC1)OC(c1ccc(F)cc1)=N2 (stereo unspecified) | inconclusive: 32.6 µM [inhibitor, single point]
38 | Cc1cc(C)c2nc(SC(C)C(=O)NCC(=O)Nc3ccc(F)c(F)c3F)cc(C)c2c1 (stereo unspecified) | inconclusive: 1 µM [activator, full curve]
39 | Cc1cc(N2CCN(c3ccccc3)CC2)n2cc(-c3ccccc3)nc2n1 | inconclusive: 35.5 µM [inhibitor, single point]
40 | CCc1ccc(CN(C)CCc2ccccn2)cc1 | inconclusive: 23.1 µM [activator, single point]

More structures:

Row | Compound | Potency
45 | Cc1ccccc1S(=O)(=O)c1c(C)cc(C)n(CC(C)C)c1=O | inconclusive: 35.5 µM [inhibitor, single point]
46 | O=C(NCc1ccccc1Cl)c1ccncc1 | inconclusive: 35.5 µM [activator, single point]
47 | O=C(CSCCO)Nc1ccc([N+](=O)[O-])cc1 | inconclusive: 5.62 µM [activator, partial curve, poor fit]
48 | COCc1cc(=O)n2c([nH]c3ccccc32)c1C#N | inconclusive: 1.16 µM [inhibitor, partial curve, poor fit]
49 | CC[C@@H]1C(=O)OC[C@@H]1Cc1cncn1C | inconclusive: 3.98 µM [inhibitor, full curve, poor fit]
50 | O=[N+]([O-])c1ccc(Cl)c2c1C1C=CCC1C(c1ccccn1)N2 (stereo unspecified) | inconclusive: 12.6 µM [inhibitor, single point]
51 | CCCCN(CC)CCCNC(=O)c1sc2nc(C)cc(C)c2c1-n1cccc1 | inactive
52 | COc1cc2cnc(Cl)nc2cc1OC | inconclusive: 3.26 µM [inhibitor, partial curve, poor fit]
53 | CCOC(=O)c1cc(C#N)c(C)nc1N(CC)CC | inactive
54 | Cc1cc(C)cc(NC(=O)Cn2nnc(C(=O)NCc3ccc4c(c3)OCO4)c2N)c1 | inconclusive: 5.62 µM [inhibitor, partial curve, poor fit]
55 | CSc1nsc(SC)c1C(=O)Nc1ccc(C)cc1 | inconclusive: 35.5 µM [inhibitor, single point]
56 | CN(C)CCCOC(=O)c1cc2ccccc2o1 | inactive
57 | CC(C)CO/N=C1\C[C@@H](O)[C@@H](O)[C@@H]2[C@@H]3C(=O)N(c4ccc(F)cc4F)C(=O)[C@@H]3CC[C@@H]12 | inactive
58 | COc1ccc(N2CC(NC(=O)c3cccc4ccccc34)CC2=O)cc1OC (stereo unspecified) | inconclusive: 35.5 µM [inhibitor, partial curve, poor fit]
59 | CCOC(=O)c1ccc(N/C=C/C(=O)c2ccc(OC)c(OC)c2)cc1 | inactive
60 | Cc1ccc(S(=O)(=O)NC(=O)Nc2cc(C(C)(C)C)on2)cc1 | inconclusive: 31.6 µM [activator, single point]
61 | COC(=O)C(Nc1nccs1)(OC)C(F)(F)F (stereo unspecified) | inactive
62 | CCOCc1nnc(NC(=O)COc2ccc3c(c2)OCO3)s1 | inconclusive: 12.6 µM [inhibitor, single point]
63 | CC1(C(=O)Nc2nnc(SCc3ccccc3)s2)Cc2ccccc2C(=O)O1 (stereo unspecified) | inactive
64 | Cc1ccc(C(C)C)c(OCC(=O)NC(=S)Nc2ccccc2N2CCOCC2)c1 | inactive
65 | O=C(CSc1nc2ccccc2n1CCc1ccccc1)N1CCOCC1 | inactive
66 | COCCOc1ccc(C(F)(F)F)cc1NC(=O)COC(=O)C1=COCCO1 | inconclusive: 35.5 µM [inhibitor, single point]
